Laboratory results: PubChem BioAssay AID686938 (Drosophila RNAi Screening Center, 2013)

Screen: 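Fly genes required for calcium entry once internal stores are emptied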 (primary screen)
Cells: Drosophila S2R+ cells
Reagent: long dsRNA against Drosophila genes, about 0.25 µg dsRNA per well, roughly 10,000 cells
Time to read-out: 5 days of knock-down before the calcium assay
Conditions: thapsigargin (SERCA pump blocker) to empty calcium stores; entry signal taken 4 min after adding it
Measured: 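Duplicate raw fluo-4 intensities per well from a plate reader, at rest and four minutes after thapsigargin emptied calcium stores; entry-to-rest ratio filled for only some wells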
Scale: calcium entry signal: higher = stronger calcium signal after store depletion; resting calcium signal: higher = higher resting calcium signal
Hit rule: 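Called when the plate z-score of the entry-to-rest ratio, mean of duplicates, falls below −3; wells with low overall dye signal (Fmax z below −2) or more than five off-targets excluded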
Calls: active = strongly reduced calcium entry; inactive = no strong reduction
The screen tested about 23,000 reagents; this is an unselected part of those that have a named target and a result. Of all reagents, 75 (0.33%) were called active. 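Raw plate signals without normalisation; calls rest on plate z-scores that were not deposited; ratio present for only 364 wells.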 Reagents against one gene are numbered here. A plus sign joins genes that one reagent is predicted to hit. No sequences are given here. Not stated in the record: the dose of the treatment.

target gene	reagent	calcium entry signal, replicate 1 (fluorescence units)	calcium entry signal, replicate 2 (fluorescence units)	resting calcium signal, replicate 1 (fluorescence units)	resting calcium signal, replicate 2 (fluorescence units)	Call
CG13516 (GeneID 3885599)	1	4.12e7	4.76e7	2.17e7	2.22e7	inactive
CG7271 (GeneID 40021)	1	4.49e7	3.18e7	2.09e7	1.34e7	inactive
CG10864 (GeneID 42222)	1	4.31e7	4.53e7	5.32e7	2.16e7	inactive
CG32269 + CG32270	1	2.30e7	4.39e6	1.29e7	5.05e6	inactive
CG10694 (GeneID 42855)	1	5.44e7	5.08e7	2.50e7	1.82e7	inactive
Ype (GeneID 32295)	1	3.78e7	4.22e7	1.75e7	1.86e7	inactive
CG15578 (GeneID 50379)	1	3.18e7	4.69e7	1.52e7	2.01e7	inactive
CG4020 (GeneID 31522)	1	4.08e7	5.09e7	1.97e7	2.29e7	inactive
GluProRS (GeneID 42834)	1	2.25e7	1.96e7	1.23e7	1.09e7	inactive
Spn (GeneID 46194)	1	5.00e7	4.48e7	2.49e7	2.00e7	inactive
Spn (GeneID 46194)	2	4.66e7	3.61e7	2.05e7	1.76e7	inactive
Spn (GeneID 46194)	3	4.24e7	4.93e7	2.13e7	2.17e7	inactive
Twdlalpha (GeneID 326223)	1	3.51e7	3.21e7	1.80e7	1.27e7	inactive
ringer (GeneID 39813)	1	3.65e7	4.34e7	1.61e7	1.89e7	inactive
Prp18 (GeneID 42285)	1	2.15e7	1.89e7	1.19e7	1.09e7	inactive
CG3437 (GeneID 39096)	1	2.69e7	3.64e7	1.35e7	1.58e7	inactive
homer (GeneID 33944)	1	3.24e7		1.79e7		inactive
ND-13B (GeneID 39214)	1	2.52e7	2.75e7	1.34e7	1.30e7	inactive
CG42237 (GeneID 32261)	1	3.44e7	4.08e7	1.71e7	1.79e7	inactive
Det (GeneID 42077)	1	3.06e7	5.21e7	1.61e7	6.95e7	inactive
Sans (GeneID 36427)	1	3.63e7	3.22e7	1.49e7	1.42e7	inactive
Mrtf (GeneID 38338)	1	3.61e7	4.03e7	1.89e7	1.88e7	inactive
Mrtf (GeneID 38338)	2	3.84e7	4.47e7	2.18e7	2.00e7	inactive
Mrtf (GeneID 38338)	3	4.52e7	4.46e7	2.53e7	2.01e7	inactive
Mrtf (GeneID 38338)	4	3.78e7	3.70e7	1.84e7	1.46e7	inactive

Entries above whose target name begins with S or s (4):
target gene	reagent	calcium entry signal, replicate 1 (fluorescence units)	calcium entry signal, replicate 2 (fluorescence units)	resting calcium signal, replicate 1 (fluorescence units)	resting calcium signal, replicate 2 (fluorescence units)	Call
Spn (GeneID 46194)	1	5.00e7	4.48e7	2.49e7	2.00e7	inactive
Spn (GeneID 46194)	2	4.66e7	3.61e7	2.05e7	1.76e7	inactive
Spn (GeneID 46194)	3	4.24e7	4.93e7	2.13e7	2.17e7	inactive
Sans (GeneID 36427)	1	3.63e7	3.22e7	1.49e7	1.42e7	inactive
